Measured values published in PMC5476288 (PLoS Pathogens, 2017).
Substitutions are numbered along the chain they refer to. Results are given in words; binding and its absence hold for the method and conditions named. Binding seen in cells or lysates may run through a third protein. Some entries that bind do so weakly or less than the wild type. Sequences can lack the tags named with a protein.

What was measured:
Assay in all cases: co-IP
Flag-ERRα = target: T1, Flag-ERRα (UniProt P11474)
T1 sequence: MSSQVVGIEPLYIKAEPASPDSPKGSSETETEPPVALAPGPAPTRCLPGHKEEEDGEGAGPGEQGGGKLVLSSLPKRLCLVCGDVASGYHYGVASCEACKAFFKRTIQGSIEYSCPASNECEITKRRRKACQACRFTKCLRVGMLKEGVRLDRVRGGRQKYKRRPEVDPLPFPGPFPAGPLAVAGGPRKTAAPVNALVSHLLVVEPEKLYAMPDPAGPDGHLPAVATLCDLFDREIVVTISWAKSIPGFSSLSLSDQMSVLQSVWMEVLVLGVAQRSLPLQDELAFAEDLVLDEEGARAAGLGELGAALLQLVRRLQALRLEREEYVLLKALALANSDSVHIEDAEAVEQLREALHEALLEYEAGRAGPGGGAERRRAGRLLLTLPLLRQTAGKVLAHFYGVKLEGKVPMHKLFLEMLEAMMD

Flag-ERRα D338A = target: T2, Flag-ERRα D338A (UniProt P11474)
T2 sequence: T1 sequence with D338A

Flag-ERRα H8/9 mutant = target: T3, Flag-ERRα H8/9 mutant (UniProt P11474)
T3 sequence: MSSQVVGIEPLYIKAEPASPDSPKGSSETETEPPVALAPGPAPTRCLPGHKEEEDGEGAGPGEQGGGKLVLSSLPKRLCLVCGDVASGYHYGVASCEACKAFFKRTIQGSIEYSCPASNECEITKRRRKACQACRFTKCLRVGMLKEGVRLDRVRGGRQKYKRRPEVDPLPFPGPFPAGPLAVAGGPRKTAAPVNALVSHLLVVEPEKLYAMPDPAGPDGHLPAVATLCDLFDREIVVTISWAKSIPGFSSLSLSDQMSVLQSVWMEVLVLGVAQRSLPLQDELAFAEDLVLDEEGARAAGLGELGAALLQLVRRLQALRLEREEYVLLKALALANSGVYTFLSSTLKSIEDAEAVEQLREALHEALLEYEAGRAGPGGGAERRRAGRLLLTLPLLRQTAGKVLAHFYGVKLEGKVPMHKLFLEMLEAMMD

Flag-ERRα Q262E = target: T4, Flag-ERRα Q262E (UniProt P11474)
T4 sequence: T1 sequence with Q262E

Flag-IRF3 (human) = target: T5, Flag-IRF3 (human) (UniProt Q14653)
T5 sequence: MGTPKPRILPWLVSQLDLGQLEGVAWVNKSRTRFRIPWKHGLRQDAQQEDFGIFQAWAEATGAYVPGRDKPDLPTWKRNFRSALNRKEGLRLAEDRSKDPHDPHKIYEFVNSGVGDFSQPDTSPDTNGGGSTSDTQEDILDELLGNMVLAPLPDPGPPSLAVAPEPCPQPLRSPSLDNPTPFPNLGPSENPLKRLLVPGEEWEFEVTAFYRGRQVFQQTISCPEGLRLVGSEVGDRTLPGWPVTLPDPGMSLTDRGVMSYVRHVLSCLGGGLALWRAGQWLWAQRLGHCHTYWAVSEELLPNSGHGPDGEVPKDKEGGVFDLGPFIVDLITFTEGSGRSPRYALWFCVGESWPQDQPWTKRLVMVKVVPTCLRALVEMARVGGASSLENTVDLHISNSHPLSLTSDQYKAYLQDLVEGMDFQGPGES

Measured: binding

B1: HA-TBK1 (enzyme, UniProt Q9UHD2 1-729)
chain: MQSTSNHLWLLSDILGQGATANVFRGRHKKTGDLFAIKVFNNISFLRPVDVQMREFEVLKKLNHKNIVKLFAIEEETTTRHKVLIMEFCPCGSLYTVLEEPSNAYGLPESEFLIVLRDVVGGMNHLRENGIVHRDIKPGNIMRVIGEDGQSVYKLTDFGAARELEDDEQFVSLYGTEEYLHPDMYERAVLRKDHQKKYGATVDLWSIGVTFYHAATGSLPFRPFEGPRRNKEVMYKIITGKPSGAISGVQKAENGPIDWSGDMPVSCSLSRGLQVLLTPVLANILEADQEKCWGFDQFFAETSDILHRMVIHVFSLQQMTAHKIYIHSYNTATIFHELVYKQTKIISSNQELIYEGRRLVLEPGRLAQHFPKTTEENPIFVVSREPLNTIGLIYEKISLPKVHPRYDLDGDASMAKAITGVVCYACRIASTLLLYQELMRKGIRWLIELIKDDYNETVHKKTEVVITLDFCIRNIEKTVKVYEKLMKINLEAAELGEISDIHTKLLRLSSSQGTIETSLQDIDSRLSPGGSLADAWAHQEGTHPKDRNVEKLQVLLNCMTEIYYQFKKDKAERRLAYNEEQIHKFDKQKLYYHATKAMTHFTDECVKKYEAFLNKSEEWIRKMLHLRKQLLSLTNQCFDIEEEVSKYQEYTNELQETLPQKMFTASSGIKHTMTPIYPSSNTLVEMTLGMKKLKEEMEGVVKELAENNHILERFGSLTMDGGLRNVDCL
binds: all assays above
